Reference: the supplement of paper PMC9015667
This is one part of the list. Single values are uncertain, as repeats are few or missing.

How the values were obtained:
Test in all cases: reduction in cell viability relative to untreated/vehicle; higher = more growth inhibition
Details in all cases: 200 nM; 72 h
M229P = system: M229P (parental melanoma line)
M229R = system: M229R (matched melanoma line resistant to BRAF inhibitors)
M238P = system: M238P (parental melanoma line)
M238R = system: M238R (matched melanoma line resistant to BRAF inhibitors)
M249P = system: M249P (parental melanoma line)
M249R = system: M249R (matched melanoma line resistant to BRAF inhibitors)
UACC62P = system: UACC62P (parental melanoma line)
UACC62R = system: UACC62R (matched melanoma line resistant to BRAF inhibitors)

Row | Structure (SMILES) | reduction in cell viability (M229P) [%] | reduction in cell viability (M229R) [%] | reduction in cell viability (M238P) [%] | reduction in cell viability (M238R) [%] | reduction in cell viability (M249P) [%] | reduction in cell viability (M249R) [%] | reduction in cell viability (UACC62P) [%] | reduction in cell viability (UACC62R) [%]
1 | Cc1cc(Nc2cc(CN3CCOCC3)c3nc(C)c(Cc4ccc(Cl)cc4F)n3n2)n[nH]1 [Gandotinib] | < 0 | 12 | < 0 | < 0 | < 0 | < 0 | < 0 | < 0
2 | C[C@](Cc1c[nH]c2ccccc12)(NC(=O)OC1[C@H]2C[C@@H]3C[C@@H](C[C@H]1C3)C2)C(=O)NC[C@H](NC(=O)CCC(=O)O)c1ccccc1 (stereo partly drawn) | < 0 | < 0 | 3.17 | < 0 | < 0 | < 0 | < 0 | < 0
3 | CC(C)C[C@H](NC(=O)[C@@H](O)[C@H](N)Cc1ccccc1)C(=O)O [Ubenimex] | < 0 | < 0 | < 0 | < 0 | < 0 | < 0 | < 0 | < 0
4 | C=CCn1c(=O)c2cnc(Nc3ccc(N4CCN(C)CC4)cc3)nc2n1-c1cccc(C(C)(C)O)n1 | 6.72 | 54.8 | 45 | < 0 | 43.1 | 50.4 | 36.1 | 63.4
5 | CC(=O)OCC(=O)[C@@]1(O)[C@H](C)C[C@H]2[C@@H]3C=C(C)C4=Cc5c(cnn5-c5ccccc5)C[C@]4(C)[C@H]3[C@@H](O)C[C@@]21C [Cortivazol] | < 0 | < 0 | < 0 | < 0 | < 0 | < 0 | < 0 | < 0
6 | CCN(CC)CCCCNc1ncc2c(n1)N(C)C(=O)N(c1c(Cl)c(OC)cc(OC)c1Cl)C2 | < 0 | < 0 | < 0 | < 0 | < 0 | < 0 | < 0 | < 0
7 | COC(=O)Nc1nc2cc(Sc3ccccc3)ccc2[nH]1 [Fenbendazole] | 17.9 | 35.2 | 33.2 | 17.8 | 24.7 | 38.1 | 38.9 | 74.3
8 | Nc1nc(N)c(N=O)c(OCC2CCCCC2)n1 | < 0 | 0.25 | < 0 | < 0 | < 0 | < 0 | < 0 | < 0
9 | CC(C)N(CC[C@H](c1ccccc1)c1cc(CO)ccc1O)C(C)C | < 0 | < 0 | < 0 | < 0 | < 0 | < 0 | < 0 | < 0
10 | COc1ccc(/C=C/C(=O)Nc2ccccc2C(=O)O)cc1OC [Tranilast] | < 0 | < 0 | < 0 | < 0 | < 0 | < 0 | < 0 | < 0
11 | Nc1ncnc2c1c(-c1cnc3[nH]ccc3c1)nn2C1CCCC1 | < 0 | 37.2 | 26.5 | 45.3 | 5.01 | 22.2 | 14.6 | 21.8
12 | Cc1cc(CN2CCN(c3c(Br)cnc4nc(-c5ccc(N6CCN(C)CC6)cc5)[nH]c34)CC2)no1 | < 0 | < 0 | 7.52 | < 0 | < 0 | < 0 | < 0 | 38.3
13 | CCCCN(CCCC)CC(O)c1cc(Cl)cc2c1-c1ccc(Cl)cc1/C2=C/c1ccc(Cl)cc1 (stereo not drawn) [Lumefantrine] | < 0 | < 0 | < 0 | < 0 | < 0 | 6.47 | < 0 | < 0
14 | Cc1c(O)cccc1C(=O)N[C@@H](CSc1ccccc1)[C@H](O)CN1C[C@H]2CCCC[C@H]2C[C@H]1C(=O)NC(C)(C)C [Viracept] | < 0 | < 0 | < 0 | < 0 | < 0 | < 0 | < 0 | < 0
15 | CCN(CC)CCCC(C)Nc1nc(C)cc(Nc2ccc3nc(C)cc(N)c3c2)n1 (stereo not drawn) | < 0 | 10.9 | < 0 | < 0 | < 0 | < 0 | < 0 | < 0
16 | CCCCC(C)(C)[C@H](O)/C=C/[C@H]1[C@H](O)CC(=O)[C@@H]1C/C=C\CCCC(=O)O [16,16-dimethyl PGE2] | < 0 | < 0 | < 0 | < 0 | < 0 | < 0 | < 0 | < 0
17 | CO[C@@H]1[C@H](N(C)C(=O)c2ccccc2)C[C@H]2O[C@]1(C)n1c3ccccc3c3c4c(c5c6ccccc6n2c5c31)C(=O)NC4 | < 0 | 9.67 | 18.4 | 58.1 | < 0 | < 0 | < 0 | 31.6
18 | CC(=O)OC[C@H]1O[C@@H]([S-])[C@H](OC(C)=O)[C@@H](OC(C)=O)[C@@H]1OC(C)=O.CCP(CC)CC.[Au+] [Auranofin] | 12.5 | 24.4 | 65.9 | 73.4 | 3.08 | 7.54 | 16.2 | 22.4
19 | Cc1cc(OCCCc2c(C(=O)O)n(Cc3cccnc3)c3c(-c4c(COc5ccc(N6CCN([S+](C)(=O)[O-])CC6)cc5)nn(C)c4C)cccc23)cc(C)c1Cl | < 0 | < 0 | < 0 | < 0 | < 0 | < 0 | < 0 | < 0
20 | CS[C@H]1SC[C@H]2C(=O)N(C)[C@@H](C(C)C)C(=O)OC[C@@H](NC(=O)c3cnc4ccccc4n3)C(=O)N[C@@H](C)C(=O)N(C)[C@@H]1C(=O)N(C)[C@@H](C(C)C)C(=O)OC[C@@H](NC(=O)c1cnc3ccccc3n1)C(=O)N[C@@H](C)C(=O)N2C [Echinomycin] | 81.1 | 78.9 | 86.6 | 71.5 | 90.9 | 91.8 | 78.3 | 82.4
21 | CC/C(=C(\c1ccccc1)c1ccc(OCCN(C)C)cc1)c1ccccc1 [Tamoxifen] | < 0 | < 0 | < 0 | < 0 | < 0 | < 0 | 5.91 | < 0

An excerpt of these results, tab-delimited.
Row	Structure (SMILES)	reduction in cell viability (M229P) [%]	reduction in cell viability (M229R) [%]	reduction in cell viability (M238P) [%]	reduction in cell viability (M238R) [%]	reduction in cell viability (M249P) [%]	reduction in cell viability (M249R) [%]	reduction in cell viability (UACC62P) [%]	reduction in cell viability (UACC62R) [%]
4	C=CCn1c(=O)c2cnc(Nc3ccc(N4CCN(C)CC4)cc3)nc2n1-c1cccc(C(C)(C)O)n1	6.72	54.8	45	< 0	43.1	50.4	36.1	63.4
7	COC(=O)Nc1nc2cc(Sc3ccccc3)ccc2[nH]1 [Fenbendazole]	17.9	35.2	33.2	17.8	24.7	38.1	38.9	74.3
